PubChem BioAssay AID1224826 – NIAID, 2016

Assay: 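Knock-downs that raise or lower Tnf reporter signal after endotoxin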 (primary screen)
Cell system: RAW264.7 G9 macrophages from mouse bearing reporters for p65 (GFP) and the Tnf promoter (mCherry)
Knock-down reagent: siRNA pool against mouse genes, 100 nM
Time to read-out: 16 h of LPS stimulation, after 2 days of siRNA transfection
Challenge: bacterial lipopolysaccharide (Salmonella minnesota R595), 10 ng/ml
Read-out: 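Imaged Tnf reporter mCherry in nuclei, minus background, normalised per plate to the median and expressed as robust z-scores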
Direction: Tnf reporter robust z-score: higher = stronger Tnf promoter reporter signal after LPS; Tnf reporter intensity: higher = stronger Tnf promoter reporter signal
Hit rule: 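Called active when robust z-score is at most -1.3, matching the median of the Tlr4 knock-down control, or over 3; control wells and wells with under 50 cells never active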
Meaning of the calls: active = Tnf reporter clearly lowered or raised; inactive = no clear change in Tnf reporter
The deposit covers about 17,000 reagents; below is a random part of them. About 1,110 of all reagents (6.6%) count as active. 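Active means lowered or raised reporter signal; replicate intensities are raw and not normalised per plate.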 Unmarked entries are inactive. The numbers tell different reagents against one gene apart.

no.	gene	reagent no.	Tnf reporter robust z-score	fewer than 50 cells in well	Tnf reporter intensity, replicate 1	Tnf reporter intensity, replicate 2
1	Pou4f3	1	-0.51	enough cells in well	194	167
2	Esco2	1		fewer than 50 cells per well; well left out of calls	169	52.9
3	Tesk2	1	0.81	enough cells in well	229	163
4	4930412M03Rik	1		fewer than 50 cells per well; well left out of calls	149	67
5	Mug2	1	-1.18	enough cells in well	159	51.1
6	Gulo	1	1.23	enough cells in well	386	206
7	Twnk	1	-0.55	enough cells in well	179	162
8	Fndc4	1	0.68	enough cells in well	296	173
9	Uggt2	1	1.23	enough cells in well	229	231
10	Zfp592	1	0.43	enough cells in well	124	164
11	Panx3	1	-1.07	enough cells in well	163	81.6
12	Pcdha3	1	2.26	enough cells in well	231	262
13	Ckmt1	1	0.63	enough cells in well	239	190
14	Luzp1	1	0.64	enough cells in well	157	239
15	Smpdl3a	1		fewer than 50 cells per well; well left out of calls	10.2	30.7
16	Flywch1	1	-0.06	enough cells in well	151	133
17	Trim26	1	0.24	enough cells in well	234	266
18	Rax	1	0.85	enough cells in well	370	282
19	Rap1gap	1	0.27	enough cells in well	342	220
20	Cln5	1	-0.8	enough cells in well	164	167
21	Magea13	1		fewer than 50 cells per well; well left out of calls	148	45.2
22	Agl	1	0.19	enough cells in well	126	185
23	Tmed11	1	-0.97	enough cells in well	152	52.8
24	Tnfrsf1b	1	-1.19	enough cells in well	154	70.8
25	Prss43	1	0.89	enough cells in well	155	119
26	Cacnb4	1	-1.47 (active)	enough cells in well	76.5	77.4
27	Ndufs5-ps	1	0.54	enough cells in well	294	257
28	Adh1	1	1.89	enough cells in well	308	240
29	Lzic	1	1.75	enough cells in well	280	251
30	Cyrib	1	1.68	enough cells in well	398	124
31	Ears2	1		fewer than 50 cells per well; well left out of calls	161	39.8
32	Or52s1	1	-0.97	enough cells in well	41.3	77
33	Atxn7	1	-0.85	enough cells in well	196	162
34	Ascc2	1	3.32 (active)	enough cells in well	444	169
35	Sncaip	1	5.51 (active)	enough cells in well	301	67.2
36	Rasgrf1	1	0.31	enough cells in well	345	223
37	Lima1	1	0.35	enough cells in well	227	176
38	Elovl1	1	-0.18	enough cells in well	178	106
39	Asb16	1	-0.72	enough cells in well	133	121
40	Crem	1	0.16	enough cells in well	184	196
41	Or5b101	1	1.61	enough cells in well	295	175
42	Notum	1	-0.2	enough cells in well	200	105
43	Cdk18	1	-1.22	enough cells in well	116	104
44	B3gnt4	1	1.27	enough cells in well	269	211
45	H2-T22	1	2.16	enough cells in well	362	326
46	H2-T22	2	-1.6 (active)	enough cells in well	115	74.4
47	H2-T22	3	-0.43	enough cells in well	234	124
48	Pgap1	1	0.64	enough cells in well	182	234
49	Adgrl3	1	0.53	enough cells in well	261	334
50	Sult2b1	1	-0.15	enough cells in well	103	85.4
51	Dennd1b	1	-1.16	enough cells in well	106	96.5
52	Zbtb5	1	0.56	enough cells in well	179	112
53	Mylip	1	-1.82 (active)	enough cells in well	89.3	36.7
54	Mmp2	1	-0.79	enough cells in well	202	144
55	Prrg4	1	0.28	enough cells in well	135	198
56	Rps6ka5	1	-0.29	enough cells in well	151	170
57	Hykk	1	1.18	enough cells in well	232	244
58	Dgkb	1	1.96	enough cells in well	326	262
59	Mus81	1	-0.17	enough cells in well	212	101
60	Colgalt1	1	2.57	enough cells in well	364	163
61	Zswim9	1	0.14	enough cells in well	97.5	157
62	Vmn1r222	1		fewer than 50 cells per well; well left out of calls	92.3	72.8
63	Clec2g	1	0.08	enough cells in well	269	171
64	Ppp1r12b	1	0.8	enough cells in well	200	231
65	Or10ag58	1	-0.41	enough cells in well	173	120
66	Adap2	1	-0.48	enough cells in well	139	146
67	Polr3h	1		fewer than 50 cells per well; well left out of calls	51.8	88.8
68	Mios	1	1.57	enough cells in well	378	246
69	Dclre1c	1	0.45	enough cells in well	193	205
70	9530056K15Rik	1	0.08	enough cells in well	185	193
71	Spin1	1	-0.72	enough cells in well	81.9	69.8
72	Aar2	1	2.74	enough cells in well	465	159
73	Smpd2	1		fewer than 50 cells per well; well left out of calls	83.2	113
74	Gngt1	1	1.76	enough cells in well	391	262
75	Cdca3	1	-0.35	enough cells in well	134	170
